{"source": "the supplement of paper PMC4604168 (melanoma cell lines)", "note": "Some of the results follow. Repeats are few or missing, and single values can be far off.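 The apoptosis fraction was the count of cleaved-PARP antibody-stained nuclei relative to all DNA-stained nuclei, imaged in 1,536-well plates. Screening doses were set so most cells survived, and baseline and induced cleaved-PARP levels vary greatly across cell lines.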"}
{"tested_on": "501Mel", "assay": "cleaved PARP positive nuclei fraction relative to DMSO control; melanoma cells; higher = more apoptosis", "settings": "library dose: low library concentration; 72 h", "units": {"cleaved PARP positive nuclei fraction": "%"}}
{"smiles": "CCCCCCCCCCCCCCCCCCOP(=O)([O-])OC1CC[N+](C)(C)CC1", "note": "[Perifosine] + C[As](C)SC[C@H](NC(=O)CC[C@H](N)C(=O)O)C(=O)NCC(=O)O [Darinaparsin] (first compound 0.4 µM, partner dose 0.4 µM)", "cleaved PARP positive nuclei fraction": 88.3}
{"smiles": "CC(=O)O[C@@]12CO[C@@H]1C[C@H](O)[C@@]1(C)C(=O)[C@H](O)C3=C(C)[C@@H](OC(=O)[C@H](O)[C@@H](NC(=O)OC(C)(C)C)c4ccccc4)C[C@@](O)([C@@H](OC(=O)c4ccccc4)[C@H]21)C3(C)C", "note": "[Docetaxel] + N.N.[Cl][Pt][Cl] [cisplatin] (first compound 0.0001 µM, partner dose 1.6 µM)", "cleaved PARP positive nuclei fraction": 182}
{"smiles": "N.N.[Cl][Pt][Cl]", "note": "[cisplatin] + C#Cc1cccc(Nc2ncnc3cc(OCCOC)c(OCCOC)cc23)c1 [erlotinib] (first compound 1.6 µM, partner dose 0.8 µM)", "cleaved PARP positive nuclei fraction": 47.6}
{"smiles": "C[As](C)SC[C@H](NC(=O)CC[C@H](N)C(=O)O)C(=O)NCC(=O)O", "note": "[Darinaparsin] + Cc1nc(Nc2ncc(C(=O)Nc3c(C)cccc3Cl)s2)cc(N2CCN(CCO)CC2)n1 [dasatanib] (first compound 0.4 µM, partner dose 0.004 µM)", "cleaved PARP positive nuclei fraction": 152}
{"smiles": "Cn1sc(=O)n(Cc2ccccc2)c1=O", "note": "+ C[As](C)SC[C@H](NC(=O)CC[C@H](N)C(=O)O)C(=O)NCC(=O)O [Darinaparsin] (first compound 0.4 µM, partner dose 0.4 µM)", "cleaved PARP positive nuclei fraction": 62.8}
{"smiles": "C[C@]12O[C@H](C[C@]1(O)CO)n1c3ccccc3c3c4c(c5c6ccccc6n2c5c31)CNC4=O", "note": "[Lestaurtinib] + C[C@]1(c2nc3c(C(N)=O)cccc3[nH]2)CCCN1 [Veliparib] (first compound 0.004 µM, partner dose 1.4 µM)", "cleaved PARP positive nuclei fraction": 87.3}
{"smiles": "Cn1cc(C2=C(c3cn(C4CCN(Cc5ccccn5)CC4)c4ccccc34)C(=O)NC2=O)c2ccccc21", "note": "[Enzastaurin] + CN1CCN(c2ccc3nc(-c4c(N)c5c(F)cccc5[nH]c4=O)[nH]c3c2)CC1 [Dovitinib] (first compound 0.8 µM, partner dose 0.1 µM)", "cleaved PARP positive nuclei fraction": 53.6}
{"smiles": "CCCCCCCCc1ccc(CCC(N)(CO)CO)cc1", "note": "[fingolimod] + N.N.[Cl][Pt][Cl] [cisplatin] (first compound 2 µM, partner dose 1.6 µM)", "cleaved PARP positive nuclei fraction": 254}
{"smiles": "Cn1cc(C2=C(c3cn(C4CCN(Cc5ccccn5)CC4)c4ccccc34)C(=O)NC2=O)c2ccccc21", "note": "[Enzastaurin] + CCCS(=O)(=O)Nc1ccc(F)c(C(=O)c2c[nH]c3ncc(Cl)cc23)c1F [PLX4720] (first compound 0.8 µM, partner dose 0.08 µM)", "cleaved PARP positive nuclei fraction": 56}
{"smiles": "CC1(C)CCC(c2ccc(Cl)cc2)=C(CN2CCN(c3ccc(C(=O)NS(=O)(=O)c4ccc(N[C@H](CCN5CCOCC5)CSc5ccccc5)c(S(=O)(=O)C(F)(F)F)c4)cc3)CC2)C1", "note": "+ N.N.[Cl][Pt][Cl] [cisplatin] (first compound 0.4 µM, partner dose 1.6 µM)", "cleaved PARP positive nuclei fraction": 73.5}
{"smiles": "Cn1cc(C2=C(c3cn(C4CCN(Cc5ccccn5)CC4)c4ccccc34)C(=O)NC2=O)c2ccccc21", "note": "[Enzastaurin] + Nc1ccn([C@@H]2O[C@H](CO)[C@@H](O)C2(F)F)c(=O)n1 [gemcitabine] (first compound 0.8 µM, partner dose 0.0004 µM)", "cleaved PARP positive nuclei fraction": 53.7}
{"smiles": "N.N.[Cl][Pt][Cl]", "note": "[cisplatin] + Nc1ncn([C@H]2C[C@H](O)[C@@H](CO)O2)c(=O)n1 [decitabine] (first compound 1.6 µM, partner dose 0.1 µM)", "cleaved PARP positive nuclei fraction": 135}
{"smiles": "Cn1sc(=O)n(Cc2ccccc2)c1=O", "note": "+ C[C@]12O[C@H](C[C@]1(O)CO)n1c3ccccc3c3c4c(c5c6ccccc6n2c5c31)CNC4=O [Lestaurtinib] (first compound 0.4 µM, partner dose 0.004 µM)", "cleaved PARP positive nuclei fraction": 75.4}
{"smiles": "Cn1cc(C2=C(c3cn(C4CCN(Cc5ccccn5)CC4)c4ccccc34)C(=O)NC2=O)c2ccccc21", "note": "[Enzastaurin] + COCC[n+]1c2c(n(Cc3cnccn3)c1C)C(=O)c1ccccc1C2=O [YM155] (first compound 0.8 µM, partner dose 0.0004 µM)", "cleaved PARP positive nuclei fraction": 64.8}
{"smiles": "C[C@]1(O)C[C@@H](c2nc(-c3ccc4ccc(-c5ccccc5)nc4c3)c3c(N)nccn32)C1", "note": "+ N.N.[Cl][Pt][Cl] [cisplatin] (first compound 0.4 µM, partner dose 1.6 µM)", "cleaved PARP positive nuclei fraction": 106}
{"smiles": "C[C@]12O[C@H](C[C@]1(O)CO)n1c3ccccc3c3c4c(c5c6ccccc6n2c5c31)CNC4=O", "note": "[Lestaurtinib] + CC(C)C[C@H](NC(=O)[C@H](Cc1ccccc1)NC(=O)c1cnccn1)B(O)O [Bortezomib] (first compound 0.004 µM, partner dose 0.001 µM)", "cleaved PARP positive nuclei fraction": 240}
{"smiles": "COc1ccc(C2=N[C@@H](c3ccc(Cl)cc3)[C@@H](c3ccc(Cl)cc3)N2C(=O)N2CCNC(=O)C2)c(OC(C)C)c1", "note": "[Nutlin-3] + C[C@]12O[C@H](C[C@]1(O)CO)n1c3ccccc3c3c4c(c5c6ccccc6n2c5c31)CNC4=O [Lestaurtinib] (first compound 0.1 µM, partner dose 0.004 µM)", "cleaved PARP positive nuclei fraction": 268}
{"smiles": "C=CCNC1=C2C[C@@H](C)C[C@H](OC)[C@H](O)[C@@H](C)/C=C(\\C)[C@H](OC(N)=O)[C@@H](OC)/C=C\\C=C(/C)C(=O)NC(=CC1=O)C2=O", "note": "[Tanespimycin] + C[As](C)SC[C@H](NC(=O)CC[C@H](N)C(=O)O)C(=O)NCC(=O)O [Darinaparsin] (first compound 0.002 µM, partner dose 0.4 µM)", "cleaved PARP positive nuclei fraction": 146}
{"smiles": "COc1ccc(C2=N[C@@H](c3ccc(Cl)cc3)[C@@H](c3ccc(Cl)cc3)N2C(=O)N2CCNC(=O)C2)c(OC(C)C)c1", "note": "[Nutlin-3] + C[As](C)SC[C@H](NC(=O)CC[C@H](N)C(=O)O)C(=O)NCC(=O)O [Darinaparsin] (first compound 0.1 µM, partner dose 0.4 µM)", "cleaved PARP positive nuclei fraction": 63.7}
{"smiles": "Cn1cc(C2=C(c3cn(C4CCN(Cc5ccccn5)CC4)c4ccccc34)C(=O)NC2=O)c2ccccc21", "note": "[Enzastaurin] + CNC(=O)c1cc(Oc2ccc(NC(=O)Nc3ccc(Cl)c(C(F)(F)F)c3)cc2)ccn1 [sorafenib] (first compound 0.8 µM, partner dose 0.4 µM)", "cleaved PARP positive nuclei fraction": 87.8}
{"smiles": "C[C@]12O[C@H](C[C@]1(O)CO)n1c3ccccc3c3c4c(c5c6ccccc6n2c5c31)CNC4=O", "note": "[Lestaurtinib] + CO[C@H]1C[C@@H]2CC[C@@H](C)[C@@](O)(O2)C(=O)C(=O)N2CCCC[C@H]2C(=O)O[C@H]([C@H](C)C[C@@H]2CC[C@@H](OCCO)[C@H](OC)C2)CC(=O)[C@H](C)/C=C(\\C)[C@@H](O)[C@@H](OC)C(=O)[C@H](C)C[C@H](C)/C=C/C=C/C=C/1C [everolimus] (first compound 0.004 µM, partner dose 0.02 µM)", "cleaved PARP positive nuclei fraction": 394}
{"smiles": "N.N.[Cl][Pt][Cl]", "note": "[cisplatin] + Cn1c(Nc2ccc(C(F)(F)F)cc2)nc2cc(Oc3ccnc(-c4ncc(C(F)(F)F)[nH]4)c3)ccc21 [CHIR265] (first compound 1.6 µM, partner dose 0.08 µM)", "cleaved PARP positive nuclei fraction": 49.4}
{"smiles": "C[C@]12O[C@H](C[C@]1(O)CO)n1c3ccccc3c3c4c(c5c6ccccc6n2c5c31)CNC4=O", "note": "[Lestaurtinib] + C=C(c1ccc(C(=O)O)cc1)c1cc2c(cc1C)C(C)(C)CCC2(C)C [Bexarotene] (first compound 0.004 µM, partner dose 2 µM)", "cleaved PARP positive nuclei fraction": 231}
{"smiles": "N.N.[Cl][Pt][Cl]", "note": "[cisplatin] + CO[C@H]1C[C@@H]2CC[C@@H](C)[C@@](O)(O2)C(=O)C(=O)N2CCCC[C@H]2C(=O)O[C@H]([C@H](C)C[C@@H]2CC[C@@H](OCCO)[C@H](OC)C2)CC(=O)[C@H](C)/C=C(\\C)[C@@H](O)[C@@H](OC)C(=O)[C@H](C)C[C@H](C)/C=C/C=C/C=C/1C [everolimus] (first compound 1.6 µM, partner dose 0.02 µM)", "cleaved PARP positive nuclei fraction": 195}
{"smiles": "COc1ccc(C2=N[C@@H](c3ccc(Cl)cc3)[C@@H](c3ccc(Cl)cc3)N2C(=O)N2CCNC(=O)C2)c(OC(C)C)c1", "note": "[Nutlin-3] + N.N.[Cl][Pt][Cl] [cisplatin] (first compound 0.1 µM, partner dose 1.6 µM)", "cleaved PARP positive nuclei fraction": 83.5}
{"smiles": "Cn1sc(=O)n(Cc2ccccc2)c1=O", "note": "+ N.N.[Cl][Pt][Cl] [cisplatin] (first compound 0.4 µM, partner dose 1.6 µM)", "cleaved PARP positive nuclei fraction": 118}
{"smiles": "Cn1cc(C2=C(c3cn(C4CCN(Cc5ccccn5)CC4)c4ccccc34)C(=O)NC2=O)c2ccccc21", "note": "[Enzastaurin] + CN(c1ncccc1CNc1nc(Nc2ccc3c(c2)CC(=O)N3)ncc1C(F)(F)F)S(C)(=O)=O [PF562271] (first compound 0.8 µM, partner dose 0.08 µM)", "cleaved PARP positive nuclei fraction": 77.7}
{"smiles": "C[C@]12O[C@H](C[C@]1(O)CO)n1c3ccccc3c3c4c(c5c6ccccc6n2c5c31)CNC4=O", "note": "[Lestaurtinib] + CCCS(=O)(=O)Nc1ccc(F)c(C(=O)c2c[nH]c3ncc(Cl)cc23)c1F [PLX4720] (first compound 0.004 µM, partner dose 0.08 µM)", "cleaved PARP positive nuclei fraction": 66.4}
{"smiles": "C[C@]12O[C@H](C[C@]1(O)CO)n1c3ccccc3c3c4c(c5c6ccccc6n2c5c31)CNC4=O", "note": "[Lestaurtinib] + COc1ccc(Cl)c(Nc2nc3ccccc3nc2NS(=O)(=O)c2cccc(NC(=O)C(C)(C)N)c2)c1 [XL147] (first compound 0.004 µM, partner dose 0.8 µM)", "cleaved PARP positive nuclei fraction": 53.6}
